According to patent US20220133688A1, “MACROCYCLIC LACTONE ANTHELMINTICS AGAINST NEMATODES” (Bayer Animal Health GmbH, priority 2019, published 2022):
Some entries share one result that the patent states for a list of compounds.

Assays:
[1] = tested on: D. immitis Mf, Missouri isolate; assay: Cell attachment assay (canine PMN or PBMC attachment to Mf), Missouri isolate; format: cell-based, Dirofilaria immitis; settings: both PMNs and PBMCs
[2] = tested on: D. immitis Mf, Georgia-2 isolate; assay: Cell attachment assay (canine PMN or PBMC attachment to Mf), Georgia-2 isolate; format: cell-based, Dirofilaria immitis; settings: both PMNs and PBMCs, Georgia-2 Mf

CO/N=C1\C[C@]2(C[C@@H]3C[C@@H](C/C=C(\C)C[C@@H](C)/C=C/C=C4\CO[C@@H]5[C@H](O)C(C)=C[C@@H](C(=O)O3)[C@]45O)O2)O[C@H](/C(C)=C/C(C)C)[C@H]1C [MOX, moxidectin]
drug concentration causing a significant increase in cell attachment [1]: < 10 nM | drug concentration causing a significant increase in cell attachment [2]: < 10 nM
